Laboratory results: PubChem BioAssay AID602196 (INSERM, 2012)

Aim: 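Knock-downs that protect lung cancer cells from cisplatin or sensitise them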
System: human A549 lung cancer cells
Reagents: siRNA pair against human genes
Time to read-out: 48 h transfection before cisplatin; time from cisplatin to read-out not stated
Treatment: cisplatin at a dose killing half of control-siRNA cells; exact dose and duration not given
Detection: 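Shift in cisplatin death relative to control siRNA, from -50 (all cells die) to +50 (no cells die); siRNAs harmful on their own scored 0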
Reading the numbers: two-siRNA summed score (-2 to +2): higher = both siRNAs protect from cisplatin killing; -2 means both sensitise; mean protection from cisplatin (shift in death) and protection from cisplatin (shift in death), siRNA C and protection from cisplatin (shift in death), siRNA D: higher = protection from cisplatin killing
Hit rule: 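siRNAs harmful alone (LDH or WST-1) get 0; others get +1 for less and -1 for more cisplatin killing; genes are active when the two siRNAs give the same sign, summing to ±2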
Meaning of the calls: active = both siRNAs shift cisplatin killing the same way; inactive = no consistent shift, or siRNA harmful alone
Shown is a random part of about 23,000 reagents. Over the whole deposit, 455 (2%) are marked active. 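Active includes both protection and sensitisation; some change values fall well beyond the stated -50 to +50 range.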 Reagents against one gene are numbered here. The record does not give: the amount of reagent.

| Target gene | reagent no. | two-siRNA summed score (-2 to +2) | mean protection from cisplatin (shift in death) (%) | protection from cisplatin (shift in death), siRNA C (%) | protection from cisplatin (shift in death), siRNA D (%) | Call |
| --- | --- | --- | --- | --- | --- | --- |
| PPP1R16A (GeneID 84988) | 1 | 0 | 3.4 | 12.6 | -5.8 | inactive |
| ANKS3 (GeneID 124401) | 1 | 0 | 3.5 | -0.9 | 7.9 | inactive |
| HLX (GeneID 3142) | 1 | 1 | 8.4 | 8.1 | 8.7 | inactive |
| LOC402230 (GeneID 402230) | 1 | 0 | 7.1 | 8.7 | 5.5 | inactive |
| CEP120 (GeneID 153241) | 1 | 0 | 6.6 | 1.6 | 11.5 | inactive |
| DDO (GeneID 8528) | 1 | 0 | 4.5 | 1.5 | 7.4 | inactive |
| SUSD6 (GeneID 9766) | 1 | 1 | 18 | 11.4 | 24.6 | inactive |
| TEDDM1 (GeneID 127670) | 1 | 0 | -0.2 | 6.7 | -7.2 | inactive |
| FBLN2 (GeneID 2199) | 1 | 0 | 5.7 | 11.4 | 0.1 | inactive |
| CDR1 (GeneID 1038) | 1 | 0 | 8.4 | 7.3 | 9.4 | inactive |
| TXLNGY (GeneID 246126) | 1 | 0 | 4.2 | -2.5 | 11 | inactive |
| TXLNGY (GeneID 246126) | 2 | 1 | 4.9 | 8.4 | 1.4 | inactive |
| LOC343153 | 1 | 0 | 3.6 | -5.7 | 13 | inactive |
| LOC401876 | 1 | 1 | 8.3 | 12.6 | 3.9 | inactive |
| PLA2G12B (GeneID 84647) | 1 | 0 | -6.8 | -14 | 0.3 | inactive |
| NBPF3 (GeneID 84224) | 1 | 0 | 13.1 | 10.5 | 15.8 | inactive |
| LOC440676 | 1 | 1 | 15.9 | 15.8 | 15.9 | inactive |
| MKRN1 (GeneID 23608) | 1 | 0 | -2.7 | 0.3 | -5.7 | inactive |
| ZFP64 (GeneID 55734) | 1 | 0 | -4.8 | -0.5 | -9.1 | inactive |
| MCU (GeneID 90550) | 1 | 0 | 0.7 | 4 | -2.7 | inactive |
| ARHGEF1 (GeneID 9138) | 1 | 0 | 3.3 | 7.5 | -0.9 | inactive |
| ASAP1 (GeneID 50807) | 1 | 0 | 3.4 | 7.1 | -0.3 | inactive |
| CDRT15 (GeneID 146822) | 1 | 0 | 18.7 | 29.7 | 7.6 | inactive |
| BCO2 (GeneID 83875) | 1 | 0 | 7.3 | 20.7 | -6.1 | inactive |
| ERICH6 (GeneID 131831) | 1 | 0 | 2.3 | -1.6 | 6.1 | inactive |
| ATP6V0E2 (GeneID 155066) | 1 | -1 | -6.3 | -23.7 | 11.1 | inactive |
| FGF19 (GeneID 9965) | 1 | -1 | -4.1 | -13.7 | 5.5 | inactive |
| ITGAV (GeneID 3685) | 1 | -1 | -0.7 | 21.1 | -22.6 | inactive |
| LOC442511 | 1 | 0 | 5.7 | 2.8 | 8.6 | inactive |
| CYSLTR1 (GeneID 10800) | 1 | 0 | 3.7 | 1.3 | 6.1 | inactive |
| SLC44A2 (GeneID 57153) | 1 | 0 | 8.1 | 6.9 | 9.3 | inactive |
| WIPI1 (GeneID 55062) | 1 | 0 | 4.5 | 9.3 | -0.3 | inactive |
| LOC402269 (retired record) (GeneID 402269) | 1 | -1 | -7.4 | -9.3 | -5.5 | inactive |
| MAN1C1 (GeneID 57134) | 1 | 1 | 5 | -4.7 | 14.7 | inactive |
| ZNF234 (GeneID 10780) | 1 | 0 | 7.4 | 8.9 | 5.9 | inactive |
| SRP9 (GeneID 6726) | 1 | 1 | 9.5 | -2.9 | 21.9 | inactive |
| SCRIB (GeneID 23513) | 1 | 0 | 5.1 | -9.4 | 19.7 | inactive |
| LOC440011 | 1 | 0 | 15.8 | 11.4 | 20.1 | inactive |
| CDCA4 (GeneID 55038) | 1 | 0 | 5.6 | 10.3 | 0.8 | inactive |
| KCNAB1 (GeneID 7881) | 1 | 1 | 8 | -9.3 | 25.4 | inactive |
| NEUROG2 (GeneID 63973) | 1 | 0 | 6.2 | 12.5 | -0.1 | inactive |
| LOC441825 | 1 | 1 | 20.1 | 12 | 28.1 | inactive |
| SLC46A3 (GeneID 283537) | 1 | 0 | 13.2 | 15.7 | 10.8 | inactive |
| MACROH2A1 (GeneID 9555) | 1 | 0 | 4.2 | -3 | 11.4 | inactive |
| B3GALNT1 (GeneID 8706) | 1 | 1 | 13.4 | 15.6 | 11.1 | inactive |
| CD79B (GeneID 974) | 1 | 0 | 1.6 | -13.2 | 16.4 | inactive |
| EEF1A1 (GeneID 1915) | 1 | 0 | -12.6 | -18.9 | -6.4 | inactive |
| HERC4 (GeneID 26091) | 1 | -1 | -12.8 | -26.5 | 0.8 | inactive |
| RAET1E (GeneID 135250) | 1 | 0 | -1.7 | -5 | 1.6 | inactive |
| TGM7 (GeneID 116179) | 1 | -1 | -12.2 | -12.6 | -11.7 | inactive |
| THNSL2 (GeneID 55258) | 1 | 0 | 3.5 | -6 | 12.9 | inactive |
| LOC392271 | 1 | 0 | 3.3 | 1 | 5.6 | inactive |
| TCN2 (GeneID 6948) | 1 | 0 | 11.7 | 11.7 | 11.6 | inactive |
| MYL4 (GeneID 4635) | 1 | 0 | 13.3 | 2.2 | 24.4 | inactive |
| POLR1C (GeneID 9533) | 1 | -1 | -4.9 | 10.3 | -20.2 | inactive |
| LOC441068 | 1 | 1 | 15.5 | 12.3 | 18.6 | inactive |
| LINC00905 (GeneID 148231) | 1 | 0 | -5.2 | -21 | 10.6 | inactive |
| LOC343184 | 1 | 1 | 13.8 | 13.6 | 14 | inactive |
| DYNC1I2 (GeneID 1781) | 1 | 0 | 8.4 | 20.8 | -4 | inactive |
| LOC388117 | 1 | 0 | 5.4 | 15.4 | -4.5 | inactive |
| C1GALT1C1 (GeneID 29071) | 1 | 0 | 1.2 | 5.6 | -3.2 | inactive |
| HTR6 (GeneID 3362) | 1 | 0 | -4 | 1.2 | -9.2 | inactive |
| CMTR2 (GeneID 55783) | 1 | 0 | 10.9 | 5.6 | 16.1 | inactive |
| LOC390604 | 1 | 0 | 7.8 | 9.4 | 6.2 | inactive |
| BBC3 (GeneID 27113) | 1 | 0 | 3 | 1 | 5.1 | inactive |
| SGCG (GeneID 6445) | 1 | 0 | -3.5 | -4.2 | -2.8 | inactive |
| LOC401289 | 1 | 0 | -4 | -0.4 | -7.6 | inactive |
| CYP27A1 (GeneID 1593) | 1 | 1 | 18.1 | 25.6 | 10.5 | inactive |
| LOC283970 | 1 | 0 | 16.9 | 31.6 | 2.2 | inactive |
| MED10 (GeneID 84246) | 1 | 0 | 8.6 | 8 | 9.1 | inactive |
| NRARP (GeneID 441478) | 1 | 0 | 7.9 | 13 | 2.9 | inactive |
| BCKDHB (GeneID 594) | 1 | 0 | 7.8 | 9.3 | 6.2 | inactive |
| LOC341604 | 1 | 0 | 5.3 | 0.6 | 10.1 | inactive |
